Hit rate of the full screen: of about 53,000 sequences, about 3,700 (7%) were called active.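 Rule for the calls: active = gene knockdowns whose robust z-score for IL-1 alpha signal is at least 2 or at most -2, so actives lie on both sides; inactive = the rest.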 The list shows a part of the results.

From PubChem BioAssay AID1508600 (Functional Genomics Laboratory (NCATS/FGL), 2020) come the findings set out here.

The nature of the assay: Components of the Cytosolic LPS Sensing Pathway: Gene Identification via Genome-wide siRNA Screen.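 Note: robust z of the log signal after scaling to non-targeting control siRNA wells of the plate.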 The following applies: RAW264.7 macrophages, IL-1a HTRF, actives lie on both sides, screened at 100 nM (by protocol), cells primed 5 h with Pam3CSK4 first. The method, boiled down: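 Supernatant IL-1a by HTRF from RAW264.7 cells primed with Pam3CSK4 (5 hours) and transfected with LipidA (24 hour) after 48h siRNA knockdown at 100 nM; cell viability checked with CellTiter-Glo.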
For orientation: Time-resolved FRET reads energy transfer from a long-lived donor to a nearby acceptor.
On to GGUGGCAGAGUUGUUAUUUTT against Ppp2r2d, for which the z-score was inactive: -0.513.

Turning to CGUUCUAUUCUUGACAACATT against Znf41-ps, the z-score is inactive: 0.265.

With CCAUGUCUUGAACUUGGAUTT against Tsks, the z-score was inactive: 0.793. With GCCUAAAACUGCUUUGUAATT against Ccdc97 the figure was inactive: -0.259; with GGACCAGAUAACUGCCAAATT against Kif5c, inactive: -0.0347; with GGUAGUGAGUACUUUGGAATT against Amy2a5, inactive: -1.16. With GACAAGACAAGUUUUGGUATT against Elmo1 the figure was inactive: -0.442; with GGCCAGUUACUUUCUGAAATT against Atp11b, inactive: 1.01; with GGAAAUUAAACAGAAACAGTT against Ube2j2, inactive: -0.471. With GCGUAAAGUAAAACAGCUUTT against Nop14 the figure was inactive: 0.818; with GGUCAAAGGAAAAAAAUGGTT against Zfp30, inactive: 1.14; with GGCCAUUAAAAACACGGUATT against Eogt, inactive: 1.46.

Turning to GCGAUUUCUCUAAAUGGCUTT against Rubcnl, the z-score is inactive: -0.568. With GGCAAAAACCAGGAUGAAUTT against Ubap2l the figure was inactive: -0.726; with GGCACUCGACAGAACAACUTT against Scamp3, inactive: -0.56.

Take GGACGUGAGACUUCUUCAGTT against Prr3: the z-score is inactive: 0.0189. In the case of GCCACUCACAUUAAAUUACTT against Mthfd1, the z-score is inactive: -1.09. For CCUACAACUAUAAAAGAUGTT against Sp3, the z-score is inactive: -0.602. With GCGAUAAAGCCAACACACCTT against Nostrin the figure was inactive: -0.346; with GCUAAUAACUUUUCAGUGATT against Olfr381, inactive: 0.549; with CCUUUAAUACACUCUUCAATT against Cyp2a12, inactive: -0.337.

Consider GGUAUCACCAUAGAAUUGUTT against Rnf114, for which the z-score was inactive: -0.0623. With CGAAGAUCUUAUCAGUAUATT against Cdh7 the figure was inactive: 0.823. With GGCAGAAGUUAGCAUAAAUTT against Tbl1xr1 the figure was inactive: 0.916; with GGAAGUGGAAUCCUACAAGTT against Celsr2, inactive: 0.944. With GGCAGUAGACACAAACAGATT against Plxdc2 the figure was inactive: 0.791. CCUGCAAUACCUACUACCATT against Prss32: the z-score is inactive: -0.0732. With GCUUAAAAGUGAAGUCUUGTT against Tmem203 the figure was inactive: -0.615; with GGUGUCAGAGUUAAGACAATT against Myocd, inactive: 1.04. With CCACUUUCAACUUUCCGCATT against Fgd5 the figure was inactive: -1.94; with GGCCAGUGAUGCUGUAGUUTT against Sema6c, inactive: -0.902; with GGAAUCAGGAAUGCUACUUTT against Tsr1, inactive: 0.216. With GGCAGCAUAGACUCUGACATT against Rag2 the figure was inactive: -1.35.

As to GGCUGGGAAUUUUACAGUATT against Gpr3, the z-score is active: 3.98. With GGAUCGAAGUAGAAUGUAUTT against Cpeb2 the figure was inactive: -0.668. With GGAACAGAAGGGUAAAGGGTT against Gkn1 the figure was inactive: 0.701. As for GCUCCUUUGGUUCAACAUCTT against Olfr635, the z-score was inactive: -1.78. As to GGAAAAACAAAUUCAGCAUTT against Zfp280c, the z-score was inactive: 1.82.

Turning to CCAUCGGGAUUGACUAUGGTT against Dnajc27, the z-score was inactive: -0.878.

Regarding GGAUAUAGGUGUGAUCUAGTT against Mxra7, the z-score was inactive: 0.9. With GCUGCUUACUAUCAGAAAATT against Stx12 the figure was inactive: 0.137; with GCCUCAAAACUUCUUGUUCTT against Mxd3, inactive: 0.0291. On to GGAGUGUUGCCAGUUCCUATT against Tctn2, for which the z-score was inactive: -0.434.

Regarding GCGGACGAGUCUCUGUUAGTT against Yae1d1, the z-score is inactive: -0.573. In the case of GGGCAAUCUGCUAUUCUCUTT against Pheta2, the z-score was inactive: 0.18.

As to GGAGAGGAGAAAGUACCGUTT against Fcgbp, the z-score is inactive: 1.

Turning to GGUACCUUGCCUGACAAACTT against Ids, the z-score was inactive: 0.112. With GGCUCAAGGUUUUCUCUACTT against Olfr710 the figure was inactive: -0.0341; with GCCUAUCGUCCAGAUUAUCTT against Senp1, inactive: 0.919; with CCUACACUUCCUUUUAUAGTT against Gapt, inactive: 0.146.

GGUCAUAAGCUAUUCCUGUTT against Vmn1r177: the z-score is inactive: -1.01.

Regarding GGAUAUUGAACACUUCUUGTT against Strip2, the z-score is inactive: 1.04. With GGAAUACCUCCACCUAUGGTT against Tcerg1 the figure was inactive: -1.33; with CCUACAUCCUCCAUAGAAUTT against Gm5600, inactive: 0.456. For the sequence CGGGUCAAUUUGAAUGCAUTT against Svep1, the z-score was inactive: -1.45.

On to GGACCAUAUGGACACAAAGTT against Col10a1, for which the z-score was inactive: 0.715. On to GGACUCUCUUCUGGCAUCUTT against Nkx3-2, for which the z-score was inactive: 1.04. With GCUGGUGAUCGUAGCCAAGTT against Mydgf the figure was inactive: 0.256. In the case of GGAGCGAAUCUUAAAGAACTT against Gspt1, the z-score was inactive: 0.401. With GGAGCUGUUUCAGGUAUCUTT against Tcam1 the figure was inactive: -1.03; with GGGAAGAAAAUCAAACUCATT against Fabp1, inactive: 0.504. With GGCUGUGCGUGUUACAAAATT against Erlin1 the figure was inactive: 0.501; with CCUAUUCAUCAUAACUCAUTT against Tdo2, inactive: 0.129; with CCUGAAGCUUUUGAUCCUATT against Exoc5, inactive: 0.179.

For GGUCGAAAUGAUCUCCAACTT against Poli, the z-score was inactive: -0.687.

Consider CGGCAAUGUGACUAACAUCTT against Nrros, for which the z-score was inactive: 0.76. Consider GGAGGCUCUACUUUUGUAGTT against Olfr611, for which the z-score was active: -2.16. With GGAGAACAUGGAGACUAUUTT against Ramp1 the figure was inactive: -0.756; with GGAUCCUAGCCUUUUAUCATT against Cep70, inactive: -1.11. Consider GGGAAAAAGAAAAGGAAAATT against Dhx15, for which the z-score was inactive: -0.918. With CCAGACUCCUCUUAGAAGGTT against Ankrd34c the figure was inactive: 0.73. With GGAGAACUUCCUAUACUAUTT against Apobec2 the figure was inactive: 0.448; with GGUAAAACAGAGGAGUCGGTT against Scaf1, inactive: -0.444; with GGAUACUCACUGCACAAGGTT against Slc9a8, inactive: 0.804. With GGACCCAGUUUUCCCUUGATT against Insig2 the figure was inactive: -1.43; with GGUGGUAUCCCUAAAGGUGTT against Pus1, inactive: -0.952; with GGCUGAGAUAAUCACAUUUTT against Moxd2, inactive: 1.88. As to GGAGACUUUCCAUUUGAAGTT against Fnbp1l, the z-score was inactive: -0.188. With GCUCCUUAGACUCCACUCATT against Ccdc33 the figure was inactive: 1.79. With CUGAGGUCUCUCAUUACCATT against Olfr69 the figure was inactive: -1.46; with GGUGAAAUGGAUCGUCCUCTT against Nme8, inactive: -0.926; with CCUAAAAUCCUAGACCUUUTT against Pank1, inactive: 1.24. For the sequence GGCAAAUUAUUAGUACAGUTT against Gabpa, the z-score is inactive: 1.41.

As to GCACUAGGCGAGUUGUCAUTT against Rnase4, the z-score was inactive: -1.7. Turning to GGAGCUGAUGGAAGAGAUCTT against Speer4f1, the z-score was inactive: -1.49. With GUCUUUGUUUUGUUGCUUGTT against Olfr1232 the figure was inactive: 0.305. With GGUGUAGAUGGAUUUCAUUTT against Kcmf1 the figure was inactive: 1.3; with GCAUGAUUACCCAUUUCAATT against Tax1bp1, inactive: 0.334. With “GCAUGUUUUCCACAUGUCCTT against Vmn1r239-ps”, the z-score was inactive: 0.197. With GGAAAGAGUCAUAAUUGAUTT against Adarb2 the figure was inactive: -0.406; with GGAAUUCCACGGUAUUCACTT against Dcaf12l2, inactive: 1.46; with GGAUUUCAUUGGGUUUCUUTT against Apmap, inactive: -1.13. With GGUAGCACAUUCGGAUAAATT against Vapa the figure was inactive: -1.1; with GGUUAUCAGAAAUGUGUCCTT against Chrnb3, inactive: -1.12.

For the sequence CCUUUAACUUUCUCCUACCTT against Nfkbid, the z-score is active: 3.45. With GGACGAUGGACCCUAAAAGTT against Iqca1l the figure was inactive: 0.369. With “GGAACUGAACAAGAUUUCUTT against 1700129C05Rik” the figure was inactive: 1.84; with GGACGGGAUACUUUAAAGATT against Sem1, inactive: 0.654. As to GGAUUCAAGUUCUCACCGATT against Serpina6, the z-score is inactive: -0.462. With GCGCAAACUUUAAUAACACTT against Zkscan1 the figure was inactive: 0.604; with GCUCACCUUCAGGUAAGCGTT against Leo1, inactive: -1.28.

Consider GCAACCACUGUGGUGAUUGTT against Neurl3, for which the z-score was inactive: -0.515. With GCCUCCUUUAUGUAGCUUATT against Cdca3 the figure was inactive: 1.76; with GGUGCUGAUGGAGAACUUCTT against Ruvbl1, inactive: -1.55; with GCCGUGAAAUACAGCGUAATT against Exoc3l, inactive: 0.546. As to GGUGUCUUUCUUCACUCUUTT against Olfr862, the z-score was inactive: 0.225. With CCAUGACUAUUCUUACUUCTT against Olfr937 the figure was inactive: -0.32.
